In paper PMC5467170 one finds binding data, which are given here for 2 substances.

Amino acid sequences for entries named in this document (tags omitted). A change or cut given only in a name is not applied to a line headed by its entry.
UniProt Q8WYQ3: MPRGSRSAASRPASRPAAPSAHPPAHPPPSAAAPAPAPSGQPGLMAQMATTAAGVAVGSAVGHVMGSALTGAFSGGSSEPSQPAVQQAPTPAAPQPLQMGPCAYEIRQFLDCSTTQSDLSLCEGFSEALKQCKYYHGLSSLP
UniProt Q13148: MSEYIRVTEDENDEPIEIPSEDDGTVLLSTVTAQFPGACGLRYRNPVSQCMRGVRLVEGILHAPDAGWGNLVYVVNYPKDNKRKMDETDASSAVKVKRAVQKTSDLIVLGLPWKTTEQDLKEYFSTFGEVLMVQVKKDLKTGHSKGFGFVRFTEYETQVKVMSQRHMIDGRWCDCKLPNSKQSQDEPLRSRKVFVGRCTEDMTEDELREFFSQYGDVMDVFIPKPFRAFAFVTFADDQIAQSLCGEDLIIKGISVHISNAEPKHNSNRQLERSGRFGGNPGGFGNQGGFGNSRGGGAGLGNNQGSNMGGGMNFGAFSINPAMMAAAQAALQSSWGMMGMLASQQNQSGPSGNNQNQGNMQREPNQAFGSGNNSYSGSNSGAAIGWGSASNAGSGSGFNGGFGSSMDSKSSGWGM

Results are given in words; binding and its absence hold for the method and conditions named. In cells and extracts the contact can be indirect. For part of these data: Binding can be weak; no strength is given.

The target of assay [1] is human Flag-CHCHD10 S59L (human) (UniProt Q8WYQ3). The assay is described as follows: co-IP; cells (HT22 in Fig. 5a,c) transfected with/without TDP-43-tomato and Flag-CHCHD10 variants; lysates precipitated with Flag (M2) antibody and immunoblotted; NP-40 lysis buffer.
Assay [2] has as its target human Flag-CHCHD10 wild type (human) (UniProt Q8WYQ3). The assay is described as above.
Assay [3] has as its target human Flag-CHCHD10 R15L (human) (UniProt Q8WYQ3). The description is as above.
Assay [4] concerns the target human Flag-CHCHD10 Δ119–142 (human) (UniProt Q8WYQ3). Described as above.
The target in assay [5] is human Flag-CHCHD10 Δ1–15 (human) (UniProt Q8WYQ3). The assay is described as above.
In assay [6] the target is endogenous CHCHD10 (coiled-coil-helix-coiled-coil-helix domain containing 10) (UniProt Q8WYQ3). The experiment in a line: co-IP; endogenous proteins; immune complexes of CHCHD10 or of TDP-43, IgG beads alone as control; cells lysed in NP-40 lysis buffer (50 mM Tris pH 7.4, 150 mM NaCl, 2 mM EDTA, 1% NP-40).

Take “TDP-43-tomato (wtTDP43tdTomatoHA) (from UniProt Q13148 1-414)”: the binding result in assay [1] is “binds”; in assay [2] it was “binds”; in assay [3], “binds”; in assay [4] it was “binds”; in assay [5], “no binding”.

As for “endogenous TDP-43 (TAR DNA-binding protein 43) (from UniProt Q13148 1-414)”, the binding result in assay [6] is “binds”.
